The values that follow come from US8709811B2, “Materials and methods for synthesis of a flavor and aroma volatile in plants” (University of Florida Research Foundation, Inc., priority 2003, dated 2014).

The series can be described thus: GC volatiles analysis of ripe fruit, introgression line 8-2-1 vs control M82. The arrangement: species or system tomato. The following applies: for Level in 8-2-1 ripe fruit relative to M82 fruit: GC on DB5 column; for Level in 8-2-1 ripe fruit compared with control M82 fruit: GC profiles.

With `OCCc1ccccc1` [2-Phenylethanol], the “Level in 8-2-1 ripe fruit relative to M82 fruit” value is reported as “approximately 250 ×” and the “Level in 8-2-1 ripe fruit compared with control M82 fruit” value is “higher levels”.

In the case of `O=CCc1ccccc1` [Phenylacetaldehyde, reference compound], the “Level in 8-2-1 ripe fruit relative to M82 fruit” value was “approximately 20 ×” and the “Level in 8-2-1 ripe fruit compared with control M82 fruit” value is recorded as “higher levels”.
